Experimental data as given in patent publication US20240327415A1, “Multicomponent Complexes, Including Salts, Crystalline Forms, and Hydrates and Solvates of ENT1 Inhibitors” (iTeos Belgium SA, priority 2023, published 2024).
Several values for one entry are separate records, joined by “and”; a condition that tells them apart may be missing. Equal entries are not always repeated. At least one structure is not confirmed: it was looked up by name or label, or the drawing left a doubt.

Tests used:
[1] = hydration mapping studies (slurries at different water activities, Example 17); format: physicochemical; parameters: key: Crystalline Form 1 di(hydrogen sulfate); Crystalline Form 2 di(hydrogen sulfate) trihydrate; Crystalline Form 3 di(hydrogen sulfate); M4: Crystalline Form 4 mono(hydrogen sulfate); Crystalline Form 6 di(hydrogen sulfate); Crystalline Form 7 di(hydrogen sulfate); Amorphous di(hydrogen sulfate); 2 + Am: Crystalline Form 2 di(hydrogen sulfate) trihydrate and amorphous di(hydrogen sulfate); NCO: Not carried out; PC: Poorly crystalline; ins: Insufficient solid; ns: No solid; +: Extra peaks; PO: Preferred orientation; 2 + 6: Crystalline Form 2 di(hydrogen sulfate) trihydrate and Crystalline Form 6 di(hydrogen sulfate); settings: for XRPD, hydration studies - dried samples: dried 40° C. reduced pressure 24 hr
Protocol: Example 17—Hydration Mapping Studies-Crystalline Form 2 Compound 1 di(hydrogen sulfate) trihydrate, Crystalline Form 3 Compound 1 di(hydrogen sulfate), and Blend: The effects of different water activities on crystalline Form 2 Compound 1 di(hydrogen sulfate) trihydrate, crystalline Form 3 Compound 1 di(hydrogen sulfate) and a blend of the two were investigated. The “blend” was prepared by mixing crystalline Form 2 Compound 1 di(hydrogen sulfate) trihydrate and crystalline Form 3 Compound 1 di(hydrogen sulfate) in a 1:1 ratio. To the vials containing the required solid material, the appropriate solvent system was added to form slurries. The slurry samples were stirred at the required temperatures during and after the solvent addition. Where dissolution was observed post-solvent addition, additional solid was added to re-saturate the sample. After stirring at the required temperature for 48 hours, the residual solids left in the vials were analyzed by XRPD to assess the solid forms. The analyzed samples were then dried on the XRPD plate under reduced pressure at 40° C. for 24 hr. The dried samples were analyzed by XRPD.

[2] = seven-day solid stability studies (ambient; 40° C./75% RH; 80° C.), XRPD and HPLC; format: physicochemical; parameters: key: Crystalline Form 1 di(hydrogen sulfate); Crystalline Form 2 di(hydrogen sulfate) trihydrate; Crystalline Form 3 di(hydrogen sulfate); M4: Crystalline Form 4 mono(hydrogen sulfate); Crystalline Form 6 di(hydrogen sulfate); Crystalline Form 7 di(hydrogen sulfate); Amorphous di(hydrogen sulfate); 2 + Am: Crystalline Form 2 di(hydrogen sulfate) trihydrate and amorphous di(hydrogen sulfate); NCO: Not carried out; PC: Poorly crystalline; ins: Insufficient solid; ns: No solid; +: Extra peaks; PO: Preferred orientation; 2 + 6: Crystalline Form 2 di(hydrogen sulfate) trihydrate and Crystalline Form 6 di(hydrogen sulfate)
Protocol: In the experiment, one set of vials was exposed to ambient light, temperature and humidity conditions. Another was exposed openly to 40° C. and 75% RH conditions and a third was sealed and exposed to 80° C. conditions. After 7 days, XRPD and HPLC measurements were collected.
Example 12-Stability Studies of Amorphous Compound 1 (free base) and Crystalline Form 1 Compound 1 (free base): Seven-day stability studies were carried out comparing amorphous Compound 1 (free base) and crystalline Form 1 Compound 1 (free base) at 40° C./75% RH, under ambient conditions and at 80° C. After storage at 40° C./75% RH and 80° C., the amorphous material formed glassy solids which were pale yellow (40° C./75% RH) or orange (80° C.). It is likely that the material melted and re-solidified at 80° C. and deliquesced at 40° C./75% RH. […] (decrease in purity of ca. 11% area).
Example 15-Stabilities Studies-Crystalline Form 3 Compound 1 di(hydrogen sulfate) and Crystalline Form 4 Compound 1 mono(hydrogen sulfate): Seven-day stability studies were carried out on the prepared crystalline Form 3 Compound 1 di(hydrogen sulfate) and crystalline Form 4 Compound 1 mono(hydrogen sulfate) using the following conditions: (1) Ambient light, temperature and humidity conditions (open vial); (2) 40° C./75% RH (open vial); and (3) 80° C. (closed vial). After 7 days of storage under the specified conditions, XRPD and HPLC analyses were carried out on the residual solid materials, and the results are summarized in Table 51.
Example 18-Seven Day Stability Study on Crystalline Form 2 Compound 1 di(hydrogen sulfate) trihydrate: A 7-day stability study was conducted on crystalline Form 2 Compound 1 di(hydrogen sulfate) trihydrate using the following conditions: (1) ambient light, temperature, and humidity conditions (open vial); (2) 40° C., 75% RH (open vial); and (3) 80° C. (closed vial). After 7 days of storage under the specified, XRPD and HPLC analyses were carried out on the residual solid materials.

[3] = 20° C., 2-Propanol:Water, aw 0.1, 48 h slurry
[4] = 20° C., 2-Propanol:Water, aw 0.9, 48 h slurry
[5] = 20° C., 2-Propanol:Water, aw 0.9
[6] = 20° C., Acetonitrile:Water, aw 0.1, 48 h slurry
[7] = 20° C., Acetonitrile:Water, aw 0.9, 48 h slurry
[8] = 20° C., Acetonitrile:Water, aw 0.9
[9] = 50° C., 2-Propanol:Water, aw 0.1, 48 h slurry
[10] = 50° C., 2-Propanol:Water, aw 0.9, 48 h slurry
[11] = 50° C., 2-Propanol:Water, aw 0.9
[12] = 50° C., Acetonitrile:Water, aw 0.1, 48 h slurry
[13] = 50° C., Acetonitrile:Water, aw 0.9, 48 h slurry
[14] = 50° C., Acetonitrile:Water, aw 0.9
[15] = 7 days, 40° C./75% RH (open vial)
[16] = 7 days, 40° C./75% RH, open vial

## COc1cc(C(=O)O[C@@H]2CCCOc3cc(cc(OC)c3OC)C(=O)NCCCN3CCCN(CC2)CC3)cc(OC)c1OC.O.O.O.O=S(=O)(O)O.O=S(=O)(O)O [Form 2 di(hydrogen sulfate) trihydrate]
[1]; [3]
  XRPD, hydration studies - damp samples: 2
[1]; 20° C., 2-Propanol:Water, aw 0.1
  XRPD, hydration studies - dried samples: 2
[1]; [4]
  XRPD, hydration studies - damp samples: 2
[1]; [5]
  XRPD, hydration studies - dried samples: 2
[1]; [6]
  XRPD, hydration studies - damp samples: 2
[1]; 20° C., Acetonitrile:Water, aw 0.1
  XRPD, hydration studies - dried samples: 2
[1]; [7]
  XRPD, hydration studies - damp samples: 2
[1]; [8]
  XRPD, hydration studies - dried samples: 2
[1]; [9]
  XRPD, hydration studies - damp samples: 2
[1]; 50° C., 2-Propanol:Water, aw 0.1
  XRPD, hydration studies - dried samples: 2
[1]; [10]
  XRPD, hydration studies - damp samples: 2
[1]; [11]
  XRPD, hydration studies - dried samples: 2
[1]; [12]
  XRPD, hydration studies - damp samples: 6
[1]; 50° C., Acetonitrile:Water, aw 0.1
  XRPD, hydration studies - dried samples: 3+
[1]; [13]
  XRPD, hydration studies - damp samples: 2
[1]; [14]
  XRPD, hydration studies - dried samples: 2

## COc1cc(C(=O)O[C@@H]2CCCOc3cc(cc(OC)c3OC)C(=O)NCCCN3CCCN(CC2)CC3)cc(OC)c1OC.O=S(=O)(O)O.O=S(=O)(O)O [Form 3 di(hydrogen sulfate)]
[1]; [3]
  XRPD, hydration studies - damp samples: 3 and 6
[1]; [6]
  XRPD, hydration studies - damp samples: 1 and 3
[1]; [9]
  XRPD, hydration studies - damp samples: 1 and 6
[1]; [10]
  XRPD, hydration studies - damp samples: 2
[1]; [11]
  XRPD, hydration studies - dried samples: 2
[1]; [12]
  XRPD, hydration studies - damp samples: 3 and 6
[1]; [13]
  XRPD, hydration studies - damp samples: 2
[1]; [14]
  XRPD, hydration studies - dried samples: 2
[2]; [15]
  XRPD: 2
[2]; [16]
  XRPD: 2
[2]; 7 days, 80° C., sealed
  XRPD: 3
[2]; 7 days, Ambient (open vial)
  XRPD: 6
[2]; 7 days, Ambient, open vial
  XRPD: 6
[2]; Input sample
  XRPD: 3

## COc1cc(C(=O)O[C@@H]2CCCOc3cc(cc(OC)c3OC)C(=O)NCCCN3CCCN(CC2)CC3)cc(OC)c1OC.O=S(=O)(O)O [Form 4 mono(hydrogen sulfate)]
[2]; [15]
  XRPD: M4
[2]; [16]
  XRPD: M4
[2]; 7 days, Ambient (open vial)
  XRPD: M4
[2]; 7 days, Ambient, open vial
  XRPD: M4
[2]; Input sample
  XRPD: M4

## COc1cc(C(=O)O[C@@H]2CCCOc3cc(cc(OC)c3OC)C(=O)NCCCN3CCCN(CC2)CC3)cc(OC)c1OC.O=S(=O)(O)O.O=S(=O)(O)O [blended material]
[1]; 20° C., 2-Propanol:Water, aw 0.1, 48 h slurry, listed as Blend
  XRPD, hydration studies - damp samples: 2
[1]; 20° C., 2-Propanol:Water, aw 0.1, listed as Blend
  XRPD, hydration studies - dried samples: 2
[1]; 20° C., 2-Propanol:Water, aw 0.3, 48 h slurry
  XRPD, hydration studies - damp samples: 2
[1]; 20° C., 2-Propanol:Water, aw 0.3
  XRPD, hydration studies - dried samples: 2
[1]; 20° C., 2-Propanol:Water, aw 0.5, 48 h slurry
  XRPD, hydration studies - damp samples: 2
[1]; 20° C., 2-Propanol:Water, aw 0.5
  XRPD, hydration studies - dried samples: 2
[1]; 20° C., 2-Propanol:Water, aw 0.7, 48 h slurry
  XRPD, hydration studies - damp samples: 2
[1]; 20° C., 2-Propanol:Water, aw 0.7
  XRPD, hydration studies - dried samples: 2
[1]; [4]
  XRPD, hydration studies - damp samples: 2
[1]; [5]
  XRPD, hydration studies - dried samples: 2
[1]; 20° C., Acetonitrile:Water, aw 0.1, 48 h slurry, listed as Blend
  XRPD, hydration studies - damp samples: 3 and 2
[1]; 20° C., Acetonitrile:Water, aw 0.1, listed as Blend
  XRPD, hydration studies - dried samples: 2 and 3
[1]; 20° C., Acetonitrile:Water, aw 0.3, 48 h slurry
  XRPD, hydration studies - damp samples: 3 and 2
[1]; 20° C., Acetonitrile:Water, aw 0.3
  XRPD, hydration studies - dried samples: 2 and 3
[1]; 20° C., Acetonitrile:Water, aw 0.5, 48 h slurry
  XRPD, hydration studies - damp samples: 2
[1]; 20° C., Acetonitrile:Water, aw 0.5
  XRPD, hydration studies - dried samples: 2
[1]; 20° C., Acetonitrile:Water, aw 0.7, 48 h slurry
  XRPD, hydration studies - damp samples: 2
[1]; 20° C., Acetonitrile:Water, aw 0.7
  XRPD, hydration studies - dried samples: 2
[1]; [7]
  XRPD, hydration studies - damp samples: 2
[1]; [8]
  XRPD, hydration studies - dried samples: 2
[1]; 50° C., 2-Propanol:Water, aw 0.1, 48 h slurry, listed as Blend
  XRPD, hydration studies - damp samples: 2
[1]; 50° C., 2-Propanol:Water, aw 0.1, listed as Blend
  XRPD, hydration studies - dried samples: 2
[1]; 50° C., 2-Propanol:Water, aw 0.3, 48 h slurry
  XRPD, hydration studies - damp samples: 2
[1]; 50° C., 2-Propanol:Water, aw 0.3
  XRPD, hydration studies - dried samples: 2
[1]; 50° C., 2-Propanol:Water, aw 0.5, 48 h slurry
  XRPD, hydration studies - damp samples: 2
[1]; 50° C., 2-Propanol:Water, aw 0.5
  XRPD, hydration studies - dried samples: 2
[1]; 50° C., 2-Propanol:Water, aw 0.7, 48 h slurry
  XRPD, hydration studies - damp samples: 2
[1]; 50° C., 2-Propanol:Water, aw 0.7
  XRPD, hydration studies - dried samples: 2
[1]; 50° C., 2-Propanol:Water, aw 0.9, listed as Blend
  XRPD, hydration studies - dried samples: 2+
[1]; 50° C., Acetonitrile:Water, aw 0.1, 48 h slurry, listed as Blend
  XRPD, hydration studies - damp samples: 1 and 3
[1]; 50° C., Acetonitrile:Water, aw 0.1, listed as Blend
  XRPD, hydration studies - dried samples: 3 and 6
[1]; 50° C., Acetonitrile:Water, aw 0.3, 48 h slurry
  XRPD, hydration studies - damp samples: 1 and 3
[1]; 50° C., Acetonitrile:Water, aw 0.3
  XRPD, hydration studies - dried samples: 3 and 6
[1]; 50° C., Acetonitrile:Water, aw 0.5, 48 h slurry
  XRPD, hydration studies - damp samples: 3 and 2
[1]; 50° C., Acetonitrile:Water, aw 0.5
  XRPD, hydration studies - dried samples: 3 and 2
[1]; 50° C., Acetonitrile:Water, aw 0.7, 48 h slurry
  XRPD, hydration studies - damp samples: 2
[1]; 50° C., Acetonitrile:Water, aw 0.7
  XRPD, hydration studies - dried samples: 2
[1]; 50° C., Acetonitrile:Water, aw 0.9, listed as Blend
  XRPD, hydration studies - dried samples: 2
